# Results as given in PubChem BioAssay AID2685 (National Center for Advancing Translational Sciences (NCATS), 2010).
# The list shows a part of the results. These are further read-outs of the screen, such as a control signal, another cell line or another target. No call is given for them. Compounds called inactive in the main read-out are mostly missing here. The note in brackets gives the kind of curve behind each potency; many fits are weak.
# Test: qHTS Assay for Lipid Storage Modulators in Drosophila S3 Cells;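 as to cell number change: cells counted by Cell Tracker Red CMTPX staining in the red channel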
# Details: BODIPY lipid droplet fluorescence, 18-24 h; for cell number change: measured here: cell count max response, cells fed with added oleic acid
# Procedure, shortened: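 Drosophila S3 cells loaded with oleic acid (400 uM, as added) and compounds at several concentrations; lipid droplets imaged by 488-nm laser-scanning cytometry, 500–530 nm intensity and object ratio to cell channel. Percent activity normalized to 20 uM Triacsin C.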
# [1] = measured here: lipid fluorescence (Fed channel) AC50, cells fed with added oleic acid
# [2] = measured here: cell number channel AC50, cells fed with added oleic acid
SMILES,cell number change,AC50 [1],AC50 [2]
CCCC[n+]1ccn(C2=C([O-])c3ccccc3C(=O)/C2=N\S(=O)(=O)c2ccccc2)c1,-16%,"16.4 µM [falling, single point]",–
COC(=O)c1c(NC(=O)CCCC(=O)O)sc2c1CCCCC2,31.4%,"25.9 µM [rising, partial curve]",–
CCOC(=O)CSc1nc2ccccc2c(=O)n1CC1COc2ccccc2O1 (centres undefined),-9.51%,–,–
COC(=O)c1cc(S(=O)(=O)Nc2ccsc2C(=O)OC)oc1C,50.3%,"0.291 µM [rising, partial curve]","0.103 µM [rising, partial curve]"
CC1=C(C(=O)OCC2CCCO2)C(c2coc3ccccc3c2=O)C2=C(CCCC2=O)N1 (centres undefined),17.2%,"0.0517 µM [falling, full curve, poor fit]","0.058 µM [falling, full curve, poor fit]"
CCNc1nc(Oc2ccc(=O)n(-c3ccccc3)n2)nc(N2CCOCC2)n1,115%,–,"18.4 µM [rising, partial curve]"
Cn1c(=O)c2c(nc(SCCN3CCOCC3)n2Cc2ccc(F)cc2)n(C)c1=O,-11.9%,"1.64 µM [rising, partial curve]",–
Cn1c(SCc2cc(=O)[nH]c3ccccc23)nnc1-c1ccco1,18.2%,"8.2 µM [rising, partial curve, poor fit]",–
Cc1cc(=O)n2[nH]c(COc3ccccc3)nc2n1,-102%,"29.1 µM [falling, partial curve]","32.6 µM [falling, partial curve]"
CC1CCN(c2ccc([N+](=O)[O-])cc2C(=O)N2CCOCC2)CC1,-18.6%,"23.1 µM [falling, partial curve]",–
Cc1cccc(NC(=O)/C(=C\c2ccc([N+](=O)[O-])o2)NC(=O)c2ccc(Cl)cc2)c1,-16.1%,"8.2 µM [falling, single point]",–
O=C(NC(=S)NCC1CCCO1)c1ccccc1[N+](=O)[O-] (centres undefined),4.82%,"7.31 µM [rising, single point]",–
Cn1cnnc1SCC(=O)n1c2ccccc2c2ccccc21,-25.4%,–,"0.82 µM [falling, full curve, poor fit]"
COCCn1c(-c2ccc(-c3ccc([N+](=O)[O-])cc3Br)o2)nc2c1c(=O)[nH]c(=O)n2CC(C)C,62.9%,"29.1 µM [rising, single point]","29.1 µM [rising, single point]"
Cc1onc(-c2c(F)cccc2Cl)c1C(=O)OCC(=O)c1c[nH]c2ccccc12,0.389%,"0.00517 µM [rising, full curve, poor fit]",–
CC(C)N1CC(C(=O)Nc2cc(Cl)cc(Cl)c2)CC1=O (centres undefined),3.65%,"4.11 µM [falling, full curve]",–
CCOC(=O)N/N=C(\C)c1ccc(Br)cc1,–,"2.91 µM [rising, partial curve]","1.84 µM [rising, partial curve]"
Cc1ccnc(SCc2ccc([N+](=O)[O-])cc2)n1,7.66%,"1.3 µM [falling, partial curve]",–
Cc1ccc(C(=O)N2CCCC(Nc3ccc(C(C)C)cc3)C2)cn1 (centres undefined),8.94%,"3.66 µM [rising, partial curve, poor fit]",–
CN=c1scc(-c2cc(OC)ccc2OC)n1/N=C/c1c(C)[nH]c2ccccc12,-31.3%,"29.1 µM [falling, single point]","29.1 µM [falling, single point]"
Cc1ccccc1OCC(=O)N/N=C/c1ccc([N+](=O)[O-])o1,-29%,"20.6 µM [falling, partial curve]",–
CCCc1nc2ccccc2c(=O)n1/N=C/c1ccccc1O,-27%,"0.146 µM [falling, single point]",–
COc1cccc(CCC(=O)O)c1OC,5%,"0.00461 µM [falling, full curve, poor fit]",–
Cc1cc(C(N)=O)c2ccccc2n1,-16.3%,"0.0366 µM [falling, full curve, poor fit]","4.61 µM [falling, single point]"
CC[C@@]12C(=O)N(c3cccc(Br)c3)C(=O)N1[C@H](c1ccc(OC)cc1)[C@@H]1C(=O)N(C(C)(C)C)C(=O)[C@@H]12,18.2%,"16.4 µM [rising, single point]",–
COc1ccc(S(=O)(=O)NCC(=O)Nc2ccc3c(c2)OCCO3)cc1OC,13.1%,"29.1 µM [falling, single point]",–
CC(=O)c1c(C)[nH]c(C(=O)CSc2nnc(-c3ccco3)n2Cc2ccccc2)c1C,1.56%,"0.366 µM [rising, full curve, poor fit]",–

# An excerpt of these results, bar-delimited:
SMILES | cell number change | AC50 [1] | AC50 [2]
COC(=O)c1c(NC(=O)CCCC(=O)O)sc2c1CCCCC2 | 31.4% | 25.9 µM [rising, partial curve] | –
CCOC(=O)CSc1nc2ccccc2c(=O)n1CC1COc2ccccc2O1 (centres undefined) | -9.51% | – | –
